Results published in PubChem BioAssay AID504444 (National Center for Advancing Translational Sciences (NCATS), 2011).
The campaign covered roughly 360,000 compounds. About 7,500 (2.1%) were called active. The shares of active, inactive and inconclusive entries below differ from those in the screen. Calls come from the whole dose curve; as a rule, active = well fitted inhibition curve with a large enough effect; inconclusive = small, poorly fitted or top-dose-only effect, or effect the other way; inactive = flat fitted curve, though single readings scatter. A potency beside an inconclusive call is a rough fit, not a confirmed value.
% is set by controls: 0 for no effect and ±100 for the full control effect; potency is the fitted concentration of half-maximal effect.

Experiment: Nrf2 qHTS screen for inhibitors; note: nearly all actives have a fitted effect of over 60% in size
Settings: A549 ARE-Fluc reporter, luciferase luminescence, 18-24 h; activity change, negative = inhibition: at 46 µM (top of the series)
Outline: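 Nrf2 activity is the BugLite luminescence, read 15 min after reagent at room temperature, following CellTiter-Fluor cytotoxicity readout (30 min, 37C). Compound titrations were applied for 18-24 h to 5000 A549 ARE_Fluc cells/well in 5% FBS OPTI-MEM.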
With Cc1ccc(CSCCNC(=O)C2CCN(S(=O)(=O)Cc3ccccc3)CC2)cc1 the Potency was “inactive”.
In the case of COc1ccccc1NC(=O)CSc1ccc(-c2ccco2)nn1, the Potency is reported as “inactive”.
For O=C(NCc1ccco1)c1ccc2ccccc2c1, the Potency was inconclusive: 11.6 µM [activator, partial curve].
In the case of O=C(CCl)N(O)c1ccc(C=Cc2ccccc2)cc1, the Potency is reported as “inactive”.
With COc1ccc(OC)c(-c2csc(NC(=O)CSc3ccc([N+](=O)[O-])cc3)n2)c1 the Potency was inconclusive: 29.1 µM [falling, single point].
With c1cncc(-c2nc(N3CCOCC3)c3c4c(sc3n2)CCC4)c1 the Potency was inconclusive: 0.92 µM [falling, full curve, poor fit].
In the case of O=C(CSCc1ccccc1)Nc1cc([N+](=O)[O-])ccc1F, the Potency is reported as inconclusive: 16.4 µM [activator, partial curve].
For CCCCCOc1ccccc1CN1C(=O)C(=O)c2cc(C)ccc21, the Potency was “inactive”.
For Cc1cc(C)c(C#N)c(Nc2ccc(F)cc2)n1, the Potency was inconclusive: 29.1 µM [activator, single point].
For Cc1ccc(/C=C/C(=O)N2CCC(c3nc4ccccc4o3)CC2)cc1, the Potency was inconclusive: 29.1 µM [falling, single point].
With CCC(C)NC(=O)CSC1=Nc2ccccc2C2=NC(CC(=O)NCc3ccc(F)cc3)C(=O)N12 (configuration not stated) the Potency was “inactive”.
In the case of O=C(NCCCN1CCN(Cc2ccccc2)CC1)C1CCN(c2nnc(-n3cccc3)s2)CC1, the Potency is reported as inconclusive: 11.6 µM [falling, partial curve, poor fit].
In the case of COc1ccc(NC(=O)Nc2cc3oc4ccccc4c3cc2OC)cc1, the Potency is reported as “inactive”.
For CC(=O)O[C@@H]1C[C@H]2C(C)(C)C(=O)C=C[C@]2(C)[C@H]2CC[C@@]3(C)[C@H](c4ccoc4)OC(=O)[C@H]4O[C@]43[C@@]21C, the Potency was inconclusive: 29.1 µM [falling, single point].
In the case of CC(C)Oc1ccc(C(CC(=O)NCc2ccco2)c2ccccc2)cc1 (configuration not stated), the Potency is reported as inconclusive: 29.1 µM [falling, single point].
With Cc1ccc(-c2cc(C3C4C=CCCC4(C)C(=O)N3Cc3ccccc3)ccc2F)cc1 (configuration not stated) the Potency was inconclusive: 25.9 µM [falling, single point].
In the case of COc1cc(Br)c(/C=C/c2ccc3cccc(O)c3n2)cc1OC, the Potency is reported as “inactive”.
With COc1ccc(-n2ncc(C(=O)N3CCN(C(=O)c4ccco4)CC3)c2C2CCN(C(=O)OC(C)(C)C)CC2)cc1 the Potency was inconclusive: 29.1 µM [activator, single point].
For CCCCN(Cc1nc2ccccc2c(=O)[nH]1)C(=O)CN1C(=O)NC2(CCCCC2)C1=O, the Potency was “inactive”.
For CCCCN(C)CCNC(=O)c1ccc(Cn2c(=S)[nH]c3ccc(Br)cc3c2=O)cc1, the Potency was inconclusive: 2.31 µM [activator, full curve, poor fit].
In the case of COCCCNC(=O)c1ccc2c(=O)n(Cc3ccccc3OC)c(=S)[nH]c2c1, the Potency is reported as inconclusive: 32.6 µM [falling, partial curve, poor fit].
With CC(=O)NCCNC(=O)c1ccc(Sc2ccccc2)c([N+](=O)[O-])c1 the Potency was “inactive”.
With CC1=C(C(=O)NCc2ccccc2)C(c2cc(Br)cc(Br)c2OC(C)C)NC(=O)N1 (configuration not stated) the Potency was inconclusive: 0.146 µM [falling, full curve, poor fit].
For CS(=O)(=O)NCCn1ccc2ccccc21, the Potency was “inactive”.
With Cc1onc(-c2ccccc2)c1CNC(=O)Nc1cccc(Cl)c1 the Potency was inconclusive: 18.4 µM [falling, single point].
With Cc1nc2c(-c3ccc(F)cc3)c(C)nn2c(N2CCOCC2)c1C the Potency was inconclusive: 29.1 µM [falling, single point].
For O=C(/C=C/c1cccnc1)c1ccc(F)c(F)c1, the Potency was inconclusive: 29.1 µM [falling, single point].
In the case of COCCSc1ccccc1C(=O)Nc1ccc(Cl)cc1, the Potency is reported as inconclusive: 7.31 µM [falling, partial curve, poor fit].
With CCN(CC)C(=O)CSc1nc2c(sc(=S)n2-c2ccccc2)c(=O)n1-c1ccc(OC)c(OC)c1 the Potency was inconclusive: 18.4 µM [falling, single point].
With COc1ccc(Nc2nc3ccc(C)cn3c(=O)c2/C=N/O)cc1 the Potency was inconclusive: 6.51 µM [activator, single point].
With O=C(Cc1coc2ccc3ccccc3c12)Nc1nnc(C2CC2)s1 the Potency was inconclusive: 3.66 µM [activator, full curve].
For O=C(COC(=O)c1cccnc1Nc1cccc(C(F)(F)F)c1)NCCN1C(=O)CSC1=O, the Potency was “inactive”.
For Cc1ccnc(NC(=O)C2CCCN(S(=O)(=O)c3cnc[nH]3)C2)c1 (configuration not stated), the Potency was inconclusive: 9.2 µM [falling, partial curve, poor fit].
In the case of O=C(CSc1nnc(-c2c[nH]c3ccccc23)o1)N(Cc1ccccc1)c1ccc(F)cc1, the Potency is reported as active: 18.4 µM.
With COc1cccc(/C=C2\SC(=S)N(CCC(=O)NCCc3ccc(O)cc3)C2=O)c1 the Potency was inconclusive: 29.1 µM [falling, single point].
For CC(C)(C)c1nc(-c2ccccc2)nc2c1OCCC2, the Potency was inconclusive: 18.4 µM [activator, partial curve].
With CCn1cc(C(=O)Nc2ccc3c(c2)OCCO3)c2cc(OC)c(OC)cc2c1=O the Potency was “inactive”.
In the case of Cc1c(N=C2NC(=O)C(CC(=O)Nc3ccc(Cl)cc3)S2)c(=O)n(-c2ccccc2)n1C (configuration not stated), the Potency is reported as inconclusive: 29.1 µM [falling, single point].
With CC1=C(c2ccc(C)c(C)c2)S(=O)(=O)N=C1N1CCC(C(=O)NCc2ccccc2C)CC1 the Potency was inconclusive: 18.4 µM [activator, partial curve, poor fit].
With CCOc1ccc(S(=O)(=O)n2cnc(C)c2)cc1 the Potency was inconclusive: 7.31 µM [falling, partial curve, poor fit].
In the case of CC1=C(C#N)C(c2cccnc2)C2=C(CC(c3ccc(Cl)cc3)CC2=O)N1 (configuration not stated), the Potency is reported as “inactive”.
In the case of C=CCN(c1ccccc1)S(=O)(=O)c1cccc(C(=O)Nc2cc(C)ccn2)c1, the Potency is reported as inconclusive: 13 µM [activator, partial curve, poor fit].
For CN(C)S(=O)(=O)Oc1ccccc1C(=O)Nc1ccc(F)cc1F, the Potency was “inactive”.
For CC(C)C(=O)N1CCN(c2ccccc2NC(=O)COc2ccc(C3CCCCC3)cc2)CC1, the Potency was inconclusive: 29.1 µM [falling, single point].
For CCOc1ccc2nc3cc(NCc4ccc(OC)cc4)ccc3c(N)c2c1, the Potency was inconclusive: 5.8 µM [falling, full curve, poor fit].
In the case of N=C1C(c2nc3ccccc3s2)=C(O)CN1c1ccccc1, the Potency is reported as inconclusive: 29.1 µM [activator, single point].
In the case of COCc1cc(=O)[nH]c2c1c(-c1ccccc1)nn2C, the Potency is reported as inconclusive: 29.1 µM [activator, single point].
With COc1ccc(OCc2nnc(SCC(=O)NCc3ccco3)o2)cc1 the Potency was inconclusive: 18.4 µM [activator, partial curve, poor fit].
With CCN(CC)c1ccc(C2NC(=O)c3ccccc3N2)cc1 (configuration not stated) the Potency was inconclusive: 0.411 µM [activator, full curve, poor fit].
In the case of O=C(CCSc1ccccc1)NC1CCCCCC1, the Potency is reported as inconclusive: 16.4 µM [activator, single point].
For COC(=O)c1nnn(CC(=O)Nc2c(C)cccc2C)c1N, the activity change, negative = inhibition was inactive: -7.66% [at 9.27 µM].
With CCN(CC)c1ccc(C=O)c(OC)c1 the Potency was “inactive”.
For COc1ccc(NC(=O)c2cc(-c3ccc4c(c3)OCO4)on2)cc1OC, the Potency was inconclusive: 14.6 µM [falling, partial curve].
With CCOc1ccc(S(=O)(=O)Nc2ccccc2C(=O)Nc2ccccc2N2CCOCC2)cc1 the Potency was “inactive”.
In the case of CC[N+](CC)(CC)CC(=O)Nc1ccc(SC(F)F)cc1, the Potency is reported as “inactive”.
For CC(=O)c1ccccc1NS(=O)(=O)c1cccc2nsnc12, the Potency was inconclusive: 32.6 µM [falling, single point].
For CCOc1ccccc1NC(=O)c1cc(-c2cc(OC)c(OC)c(OC)c2)nc2ccccc12, the Potency was inconclusive: 32.6 µM [falling, partial curve, poor fit].
For COc1ccc2c(=O)c3c(=O)n(-c4ccccc4)c(-c4ccco4)nc3oc2c1, the Potency was inconclusive: 3.66 µM [activator, full curve].
With CCCc1nc(NCC2CCCO2)c2nnn(Cc3ccccc3)c2n1 (configuration not stated) the Potency was inconclusive: 29.1 µM [falling, single point].
In the case of CC[C@@H](C)[C@H](NC(=O)CCc1c(C)c2cc3c4c(oc3c(C)c2oc1=O)CCCC4)C(=O)O, the Potency is reported as inconclusive: 2.59 µM [falling, full curve, poor fit].
With CN(C)c1ccc(C2C3CCCc4ccccc4C3=NN2C)cc1 (configuration not stated) the Potency was inconclusive: 2.91 µM [activator, full curve].
In the case of COc1ccc(NC(=O)CN(C)Cc2cccs2)cc1Cl, the Potency is reported as “inactive”.
With C=CCc1ccccc1OCc1nc2ccc(C)cc2[nH]1 the Potency was inconclusive: 20.6 µM [falling, single point].
With CCOC(=O)c1ccc(NC(=O)C(=O)NCC2CCCO2)cc1 (configuration not stated) the Potency was inconclusive: 16.4 µM [activator, single point].
For Cn1c(=O)n(CC(=O)O)c(=O)c2c1nc1n2CCCN1c1ccc(Cl)cc1, the Potency was “inactive”.
For S=C(NC1CCCC1)N1CCN(C/C=C/c2ccccc2)CC1, the Potency was inconclusive: 29.1 µM [falling, single point].
In the case of CCN(CC)S(=O)(=O)c1ccc2c(c1)c(=O)c(C(=O)NCCc1ccccc1)cn2C, the Potency is reported as inconclusive: 10.3 µM [falling, single point].
